# Assay results published in the supplement of paper PMC8728848.
# The list shows a part of the results.
# How the values were obtained:
# Assay in all cases: glycan array binding signal (z-score within array); higher = stronger binding
# Conditions in all cases: glycan notation: IUPAC condensed, linker removed
# [1] = molecular target: Gal3S(b1-3)[Fuc(a1-4)]GlcNAc
# Outline: (§1)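 Glycan array binding is given as a within-array Z-score, which can be read as non-binding when negative. The arrays, 3228 of them, came from the Consortium for Functional Glycomics database and were retained only where the protein sequence was available. Z-scores were averaged across arrays of the same protein sequence at different concentrations or buffers and across linkers.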
# Gal3S(b1-4)Glc = molecular target: Gal3S(b1-4)Glc
# Outline: as §1
# Gal3S(b1-4)Glc6S = molecular target: Gal3S(b1-4)Glc6S
# Outline: as §1
# Gal3S(b1-4)GlcNAc = molecular target: Gal3S(b1-4)GlcNAc
# Outline: as §1
# [2] = molecular target: Gal3S(b1-4)[Fuc(a1-3)]Glc6S
# Outline: as §1
# [3] = molecular target: Gal3S(b1-4)[Fuc(a1-3)]GlcNAc
# Outline: as §1
# [4] = molecular target: Gal3S(b1-4)[Fuc(a1-3)]GlcNAc6S
# Outline: as §1
# Gal3S4S(b1-4)GlcNAc = molecular target: Gal3S4S(b1-4)GlcNAc
# Outline: as §1
# Gal3S6S(b1-4)GlcNAc = molecular target: Gal3S6S(b1-4)GlcNAc
# Outline: as §1
# Gal3S6S(b1-4)GlcNAc6S = molecular target: Gal3S6S(b1-4)GlcNAc6S
# Outline: as §1
# Gal4S(b1-4)GlcNAc = molecular target: Gal4S(b1-4)GlcNAc
# Outline: as §1
# Gal4S6S(b1-4)GlcNAc = molecular target: Gal4S6S(b1-4)GlcNAc
# Outline: as §1
# Gal6P(b1-4)GlcNAc = molecular target: Gal6P(b1-4)GlcNAc
# Outline: as §1
# Gal6S(b1-3)GlcNAc = molecular target: Gal6S(b1-3)GlcNAc
# Outline: as §1
# Gal6S(b1-3)GlcNAc6S = molecular target: Gal6S(b1-3)GlcNAc6S
# Outline: as §1
# Gal6S(b1-4)Glc = molecular target: Gal6S(b1-4)Glc
# Outline: as §1
# Gal6S(b1-4)Glc6S = molecular target: Gal6S(b1-4)Glc6S
# Outline: as §1
# Gal6S(b1-4)GlcNAc = molecular target: Gal6S(b1-4)GlcNAc
# Outline: as §1
# Gal6S(b1-4)GlcNAc6S = molecular target: Gal6S(b1-4)GlcNAc6S
# Outline: as §1
# GalNAc(a1-3)Gal = molecular target: GalNAc(a1-3)Gal
# Outline: as §1
# GalNAc(a1-3)GalNAc = molecular target: GalNAc(a1-3)GalNAc
# Outline: as §1
# [5] = molecular target: GalNAc(a1-3)GalNAc(b1-3)Gal(a1-4)Gal(b1-4)Glc
# Outline: as §1
# [6] = molecular target: GalNAc(a1-3)GalNAc(b1-3)Gal(a1-4)Gal(b1-4)GlcNAc
# Outline: as §1
# GalNAc(b1-3)Gal = molecular target: GalNAc(b1-3)Gal
# Outline: as §1
# [7] = molecular target: GalNAc(b1-3)Gal(a1-4)Gal(b1-4)GlcNAc
# Outline: as §1
# [8] = molecular target: GalNAc(b1-3)Gal(a1-4)Gal(b1-4)GlcNAc(b1-3)Gal(b1-4)Glc
# Outline: as §1
# [9] = molecular target: GalNAc(b1-3)Gal(a1-6)Gal(b1-4)Glc
# Outline: as §1
# GalNAc(b1-3)GalNAc = molecular target: GalNAc(b1-3)GalNAc
# Outline: as §1
# GalNAc(b1-3)GlcNAc = molecular target: GalNAc(b1-3)GlcNAc
# Outline: as §1
# GalNAc(b1-4)Gal(b1-4)Glc = molecular target: GalNAc(b1-4)Gal(b1-4)Glc
# Outline: as §1
# GalNAc(b1-4)GlcNAc = molecular target: GalNAc(b1-4)GlcNAc
# Outline: as §1
# [10] = molecular target: GalNAc(b1-4)GlcNAc(b1-2)Man
# Outline: as §1
# [11] = molecular target: GalNAc(b1-4)GlcNAc(b1-2)Man(a1-3)[GalNAc(b1-4)GlcNAc(b1-2)Man(a1-6)]Man(b1-4)GlcNAc(b1-4)GlcNAc
# Outline: as §1
# [12] = molecular target: GalNAc(b1-4)GlcNAc(b1-3)GalNAc(b1-4)GlcNAc
# Outline: as §1
# GalNAc(b1-4)GlcNAc6S = molecular target: GalNAc(b1-4)GlcNAc6S
# Outline: as §1
# GalNAc(b1-6)GalNAc = molecular target: GalNAc(b1-6)GalNAc
# Outline: as §1
# GalNAc3S(b1-4)GlcNAc = molecular target: GalNAc3S(b1-4)GlcNAc
# Outline: as §1
# GalNAc3S(b1-4)GlcNAc3S = molecular target: GalNAc3S(b1-4)GlcNAc3S
# Outline: as §1
# [13] = molecular target: GalNAc3S(b1-4)[Fuc(a1-3)]GlcNAc
# Outline: as §1
# GalNAc4S6S(b1-4)GlcNAc = molecular target: GalNAc4S6S(b1-4)GlcNAc
# Outline: as §1
# GalNAc6S(b1-4)GlcNAc = molecular target: GalNAc6S(b1-4)GlcNAc
# Outline: as §1
# Glc(a1-4)Glc = molecular target: Glc(a1-4)Glc
# Outline: as §1
# [14] = molecular target: Glc(a1-4)Glc(a1-4)Glc(a1-4)Glc
# Outline: as §1
# Glc(a1-6)Glc(a1-6)Glc = molecular target: Glc(a1-6)Glc(a1-6)Glc
# Outline: as §1
# [15] = molecular target: Glc(a1-6)Glc(a1-6)Glc(a1-6)Glc
# Outline: as §1
# Glc(b1-4)Glc = molecular target: Glc(b1-4)Glc
# Outline: as §1
# Glc(b1-6)Glc = molecular target: Glc(b1-6)Glc
# Outline: as §1
# GlcA(b1-3)Gal = molecular target: GlcA(b1-3)Gal
# Outline: as §1
# GlcA(b1-3)GlcNAc = molecular target: GlcA(b1-3)GlcNAc
# Outline: as §1
# GlcA(b1-6)Gal = molecular target: GlcA(b1-6)Gal
# Outline: as §1
# [16] = molecular target: GlcA3S(b1-3)Gal(b1-4)GlcNAc(b1-2)Man
# Outline: as §1
# [17] = molecular target: GlcA3S(b1-3)Gal(b1-4)GlcNAc(b1-3)Gal(b1-4)Glc
# Outline: as §1
# [18] = molecular target: GlcNAc(a1-3)Gal(b1-4)GlcNAc
# Outline: as §1
# [19] = molecular target: GlcNAc(a1-4)Gal(b1-3)GlcNAc
# Outline: as §1
# [20] = molecular target: GlcNAc(a1-4)Gal(b1-4)GalNAc
# Outline: as §1
# [21] = molecular target: GlcNAc(a1-4)Gal(b1-4)GlcNAc
# Outline: as §1
# [22] = molecular target: GlcNAc(a1-4)Gal(b1-4)GlcNAc(b1-3)Gal(b1-4)Glc
# Outline: as §1
# [23] = molecular target: GlcNAc(a1-4)Gal(b1-4)GlcNAc(b1-3)Gal(b1-4)GlcNAc
# Outline: as §1
# [24] = molecular target: GlcNAc(a1-4)Gal(b1-4)GlcNAc(b1-3)Gal(b1-4)GlcNAc(b1-3)Gal(b1-4)GlcNAc
# Outline: as §1
# [25] = molecular target: GlcNAc(a1-4)Gal(b1-4)GlcNAc(b1-3)Gal(b1-4)[Fuc(a1-3)]GlcNAc(b1-3)Gal(b1-4)[Fuc(a1-3)]GlcNAc
# Outline: as §1
binder,measurement,setting,value
"CcfD (Bacteroides fragilis), Q5L9G4 (protein) MKKQNSIYTLLIALLCFVSSCDYLGVSDQLAGGLQNTEQVFDNVSYTKRWYANVFAGIPDYSGINSVNVGAFKNPWTGMCDELVVGYGNSSKYNNSDRNAANMGFHRYGDCYKYIRQANIFLQKAHPIMTTGTQGDQLLEDELTQMKANVRFMRAFYHYLLFEQYGPIILVKDKIYNATEDQDVPRNTVDEVIEYIDSELTAVASELTQEPIFEDKDYRAWPTKGVALAVRAKLWLYAASPLLNGGYREALSVTNPDGTRLFPDYDAGKWEKALAACKDFIDYAEAGRYELYKEYKDDNGAVIDPDKSVYNLFQKYTHEIIWATANNDWGGMNGDAFDRRIAPRCEKNGLGSTGVTQELVDAFYMKDGFPVSATAYLPQSTLYQEEGYGTYKDQNDNFSKKYTNVTVSNRYLNREPRFYNTVFFNGRQWPVSCNQVLFYNGGNSGVQEGQATLTGYMLFKRFNRSVSLTNPGVASQFRPSIIFRLADFYLMYAEAANEVNPNDARVLKYLNLVRERAGLPDIETLNPAIRGNQELQRAAIQRERQIELATEGQRYFDVRRWMIADKNGEGRQNGYVHGMNVRGESNDKEDFNRIVEASQIVFNRKMYLYPMPDSEMRKTKNLVQNPGW",glycan array binding signal (z-score),[1],1.03
same,glycan array binding signal (z-score),Gal3S(b1-4)Glc,0.864
same,glycan array binding signal (z-score),Gal3S(b1-4)Glc6S,0.322
same,glycan array binding signal (z-score),Gal3S(b1-4)GlcNAc,0.21
same,glycan array binding signal (z-score),[2],0.213
same,glycan array binding signal (z-score),[3],0.135
same,glycan array binding signal (z-score),[4],1.44
same,glycan array binding signal (z-score),Gal3S4S(b1-4)GlcNAc,-0.542
same,glycan array binding signal (z-score),Gal3S6S(b1-4)GlcNAc,1.15
same,glycan array binding signal (z-score),Gal3S6S(b1-4)GlcNAc6S,-0.069
same,glycan array binding signal (z-score),Gal4S(b1-4)GlcNAc,-0.87
same,glycan array binding signal (z-score),Gal4S6S(b1-4)GlcNAc,-0.076
same,glycan array binding signal (z-score),Gal6P(b1-4)GlcNAc,-0.923
same,glycan array binding signal (z-score),Gal6S(b1-3)GlcNAc,1.26
same,glycan array binding signal (z-score),Gal6S(b1-3)GlcNAc6S,0.082
same,glycan array binding signal (z-score),Gal6S(b1-4)Glc,-0.01
same,glycan array binding signal (z-score),Gal6S(b1-4)Glc6S,-0.319
same,glycan array binding signal (z-score),Gal6S(b1-4)GlcNAc,-0.148
same,glycan array binding signal (z-score),Gal6S(b1-4)GlcNAc6S,1.06
same,glycan array binding signal (z-score),GalNAc(a1-3)Gal,-0.049
same,glycan array binding signal (z-score),GalNAc(a1-3)GalNAc,-0.319
same,glycan array binding signal (z-score),[5],0.266
same,glycan array binding signal (z-score),[6],1.74
same,glycan array binding signal (z-score),GalNAc(b1-3)Gal,-0.64
same,glycan array binding signal (z-score),[7],1.46
same,glycan array binding signal (z-score),[8],-0.135
same,glycan array binding signal (z-score),[9],-0.64
same,glycan array binding signal (z-score),GalNAc(b1-3)GalNAc,-0.404
same,glycan array binding signal (z-score),GalNAc(b1-3)GlcNAc,0.502
same,glycan array binding signal (z-score),GalNAc(b1-4)Gal(b1-4)Glc,-0.384
same,glycan array binding signal (z-score),GalNAc(b1-4)GlcNAc,0.824
same,glycan array binding signal (z-score),[10],-0.805
same,glycan array binding signal (z-score),[11],-0.942
same,glycan array binding signal (z-score),[12],0.437
same,glycan array binding signal (z-score),GalNAc(b1-4)GlcNAc6S,0.299
same,glycan array binding signal (z-score),GalNAc(b1-6)GalNAc,0.364
same,glycan array binding signal (z-score),GalNAc3S(b1-4)GlcNAc,-0.292
same,glycan array binding signal (z-score),GalNAc3S(b1-4)GlcNAc3S,-0.562
same,glycan array binding signal (z-score),[13],0.424
same,glycan array binding signal (z-score),GalNAc4S6S(b1-4)GlcNAc,1.77
same,glycan array binding signal (z-score),GalNAc6S(b1-4)GlcNAc,1.12
same,glycan array binding signal (z-score),Glc(a1-4)Glc,0.131
same,glycan array binding signal (z-score),[14],1.18
same,glycan array binding signal (z-score),Glc(a1-6)Glc(a1-6)Glc,-0.502
same,glycan array binding signal (z-score),[15],0.095
same,glycan array binding signal (z-score),Glc(b1-4)Glc,1.59
same,glycan array binding signal (z-score),Glc(b1-6)Glc,-0.266
same,glycan array binding signal (z-score),GlcA(b1-3)Gal,-0.555
same,glycan array binding signal (z-score),GlcA(b1-3)GlcNAc,-0.233
same,glycan array binding signal (z-score),GlcA(b1-6)Gal,-0.456
same,glycan array binding signal (z-score),[16],0.312
same,glycan array binding signal (z-score),[17],0.923
same,glycan array binding signal (z-score),[18],-0.864
same,glycan array binding signal (z-score),[19],0.496
same,glycan array binding signal (z-score),[20],-0.588
same,glycan array binding signal (z-score),[21],-0.365
same,glycan array binding signal (z-score),[22],-0.509
same,glycan array binding signal (z-score),[23],-0.634
same,glycan array binding signal (z-score),[24],-0.896
same,glycan array binding signal (z-score),[25],-0.969
